Consider one molecule from PMC3044668.

No constants are given. Whether binding was seen depends on the method and setting. Binding seen in cells or lysates may run through a third protein. Tags and fused reporters may be left off the sequences shown.

The target of this test is Xpress-tagged BcrΔoligo (UniProt P11274). The test can be described thus: cross-linking; enzymatic cross-linking by TG2 in cell lysates (50 ug) in transglutaminase assay buffer (50 mM Tris pH 8.0, 150 mM NaCl, 1% Triton X-100, 1 mM DTT) with or without 5 mM CaCl2, 2 h at 37 °C; TG2 co-transfected or guinea pig TG2 added; high molecular weight Bcr seen by Western blot. (In general: In western blotting, separated proteins are transferred to a membrane and probed.)

B1: Xpress-tagged BcrΔoligo (protein, UniProt P11274)
chain: MAKEKKSYDRQRWGFRRAAQAPDGASEPRASASRPQPAPADGADPPPAEEPEARPDGEGSPGKARPGTARRPGAAASGERDDRGPPASVAALRSNFERIRKGHGQPGADAEKPFYVNVEFHHERGLVKVNDKEVSDRISSLGSQAMQMERKKSQHGAGSSVGDASRPPYRGRSSESSCGVDGDYEDAELNPRFLKDNLIDANGGSRPPWPPLEYQPYQSIYVGGMMEGEGKGPLLRSQSTSEQEKRLTWPRRSYSPRSFEDCGGGYTPDCSSNENLTSSEEDFSSGQSSRVSPSPTTYRMFRDKSRSPSQNSQQSFDSSSPPTPQCHKRHRHCPVVVSEATIVGVRKTGQIWPNDGEGAFHGDADGSFGTPPGYGCAADRAEEQRRHQDGLPYIDDSPSSSPHLSSKGRGSRDALVSGALESTKASELDLEKGLEMRKWVLSGILASEETYLSHLEALLLPMKPLKAAATTSQPVLTSQQIETIFFKVPELYEIHKEFYDGLFPRVQQWSHQQRVGDLFQKLASQLGVYRAFVDNYGVAMEMAEKCCQANAQFAEISENLRARSNKDAKDPTTKNSLETLLYKPVDRVTRSTLVLHDLLKHTPASHPDHPLLQDALRISQNFLSSINEEITPRRQSMTVKKGEHRQLLKDSFMVELVEGARKLRHVFLFTDLLLCTKLKKQSGGKTQQYDCKWYIPLTDLSFQMVDELEAVPNIPLVPDEELDALKIKISQIKNDIQREKRANKGSKATERLKKKLSEQESLLLLMSPSMAFRVHSRNGKSYTFLISSDYERAEWRENIREQQKKCFRSFSLTSVELQMLTNSCVKLQTVHSIPLTINKEDDESPGLYGFLNVIVHSATGFKQSSNLYCTLEVDSFGYFVNKAKTRVYRDTAEPNWNEEFEIELEGSQTLRILCYEKCYNKTKIPKEDGESTDRLMGKGQVQLDPQALQDRDWQRTVIAMNGIEVKLSVKFNSREFSLKRMPSRKQTGVFGVKIAVVTKRERSKVPYIVRQCVEEIERRGMEEVGIYRVSGVATDIQALKAAFDVNNKDVSVMMSEMDVNAIAGTLKLYFRELPEPLFTDEFYPNFAEGIALSDPVAKESCMLNLLLSLPEANLLTFLFLLDHLKRVAEKEAVNKMSLHNLATVFGPTLLRPSEKESKLPANPSQPITMTDSWSLEVMSQVQVLLYFLQLEAIPAPDSKRQSILFSTEV
For the molecule B1, the binding entry is “no binding”.
